Test results as given in paper PMC3235137.
No constants are given. Whether binding was seen depends on the method and setting. Binding seen in cells or lysates may run through a third protein. Some results given as binding are weak or reduced against the parent protein; the word gives no strength.

Sequences of proteins named here, by UniProt entry; tags and fusion partners are left off. Residues count along the entry.
UniProt P13648: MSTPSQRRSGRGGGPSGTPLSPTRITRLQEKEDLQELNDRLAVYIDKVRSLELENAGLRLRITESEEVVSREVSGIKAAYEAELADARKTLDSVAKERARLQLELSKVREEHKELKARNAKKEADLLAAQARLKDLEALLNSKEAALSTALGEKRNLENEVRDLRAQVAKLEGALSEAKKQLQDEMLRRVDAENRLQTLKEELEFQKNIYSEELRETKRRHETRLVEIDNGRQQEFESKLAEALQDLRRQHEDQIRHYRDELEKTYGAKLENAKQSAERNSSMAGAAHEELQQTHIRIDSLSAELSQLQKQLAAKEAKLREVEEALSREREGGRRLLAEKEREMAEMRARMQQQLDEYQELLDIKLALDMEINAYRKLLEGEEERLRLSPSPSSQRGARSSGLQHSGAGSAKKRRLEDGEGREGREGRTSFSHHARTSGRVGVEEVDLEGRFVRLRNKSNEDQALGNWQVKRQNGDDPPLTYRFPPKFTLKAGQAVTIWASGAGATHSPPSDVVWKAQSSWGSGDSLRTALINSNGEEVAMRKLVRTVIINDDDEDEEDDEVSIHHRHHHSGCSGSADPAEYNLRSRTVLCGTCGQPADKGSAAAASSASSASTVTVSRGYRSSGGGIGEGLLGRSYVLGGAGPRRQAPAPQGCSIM
UniProt Q01406: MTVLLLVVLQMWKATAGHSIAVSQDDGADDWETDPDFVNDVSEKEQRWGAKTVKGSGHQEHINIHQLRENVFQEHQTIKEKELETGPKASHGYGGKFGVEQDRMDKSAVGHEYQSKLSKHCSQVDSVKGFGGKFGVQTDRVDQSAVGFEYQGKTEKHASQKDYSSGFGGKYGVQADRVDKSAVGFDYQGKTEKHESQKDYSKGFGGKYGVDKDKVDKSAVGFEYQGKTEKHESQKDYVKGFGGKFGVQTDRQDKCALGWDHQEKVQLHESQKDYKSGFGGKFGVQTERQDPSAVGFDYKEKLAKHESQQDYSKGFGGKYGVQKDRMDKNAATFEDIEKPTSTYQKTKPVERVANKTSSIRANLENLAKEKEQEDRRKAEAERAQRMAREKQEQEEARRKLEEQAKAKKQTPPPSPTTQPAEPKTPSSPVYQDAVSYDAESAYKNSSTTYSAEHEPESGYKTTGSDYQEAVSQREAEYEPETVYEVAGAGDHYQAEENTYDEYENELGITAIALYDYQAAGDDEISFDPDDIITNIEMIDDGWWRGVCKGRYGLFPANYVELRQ
UniProt P80566: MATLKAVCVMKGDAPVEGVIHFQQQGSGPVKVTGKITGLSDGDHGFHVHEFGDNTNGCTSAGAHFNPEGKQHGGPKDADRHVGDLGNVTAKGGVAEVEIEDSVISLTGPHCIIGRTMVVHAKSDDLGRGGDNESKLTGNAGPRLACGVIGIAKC
UniProt P60878: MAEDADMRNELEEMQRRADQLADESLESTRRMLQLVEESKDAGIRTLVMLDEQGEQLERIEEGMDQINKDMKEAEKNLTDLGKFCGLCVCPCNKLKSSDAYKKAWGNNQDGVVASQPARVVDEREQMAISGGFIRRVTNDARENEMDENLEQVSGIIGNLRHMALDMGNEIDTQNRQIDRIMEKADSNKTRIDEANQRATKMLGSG
UniProt Q90593, residues 17-652: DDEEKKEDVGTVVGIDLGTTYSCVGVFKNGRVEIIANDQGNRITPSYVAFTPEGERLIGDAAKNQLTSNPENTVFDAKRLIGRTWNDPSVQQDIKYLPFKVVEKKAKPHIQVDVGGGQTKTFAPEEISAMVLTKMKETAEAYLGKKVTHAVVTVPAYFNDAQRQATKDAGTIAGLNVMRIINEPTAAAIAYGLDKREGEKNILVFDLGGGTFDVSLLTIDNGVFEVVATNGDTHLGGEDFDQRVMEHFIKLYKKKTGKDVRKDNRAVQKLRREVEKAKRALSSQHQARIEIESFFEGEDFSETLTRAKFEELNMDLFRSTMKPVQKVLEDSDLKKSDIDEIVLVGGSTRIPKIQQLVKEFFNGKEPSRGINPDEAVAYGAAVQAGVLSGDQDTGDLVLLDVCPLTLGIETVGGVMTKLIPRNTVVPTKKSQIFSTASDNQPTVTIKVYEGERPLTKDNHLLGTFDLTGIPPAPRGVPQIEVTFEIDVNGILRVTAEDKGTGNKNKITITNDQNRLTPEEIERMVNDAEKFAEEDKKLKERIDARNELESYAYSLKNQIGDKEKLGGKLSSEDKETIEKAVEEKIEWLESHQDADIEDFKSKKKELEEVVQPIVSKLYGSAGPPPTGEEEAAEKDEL
UniProt Q8AYS8: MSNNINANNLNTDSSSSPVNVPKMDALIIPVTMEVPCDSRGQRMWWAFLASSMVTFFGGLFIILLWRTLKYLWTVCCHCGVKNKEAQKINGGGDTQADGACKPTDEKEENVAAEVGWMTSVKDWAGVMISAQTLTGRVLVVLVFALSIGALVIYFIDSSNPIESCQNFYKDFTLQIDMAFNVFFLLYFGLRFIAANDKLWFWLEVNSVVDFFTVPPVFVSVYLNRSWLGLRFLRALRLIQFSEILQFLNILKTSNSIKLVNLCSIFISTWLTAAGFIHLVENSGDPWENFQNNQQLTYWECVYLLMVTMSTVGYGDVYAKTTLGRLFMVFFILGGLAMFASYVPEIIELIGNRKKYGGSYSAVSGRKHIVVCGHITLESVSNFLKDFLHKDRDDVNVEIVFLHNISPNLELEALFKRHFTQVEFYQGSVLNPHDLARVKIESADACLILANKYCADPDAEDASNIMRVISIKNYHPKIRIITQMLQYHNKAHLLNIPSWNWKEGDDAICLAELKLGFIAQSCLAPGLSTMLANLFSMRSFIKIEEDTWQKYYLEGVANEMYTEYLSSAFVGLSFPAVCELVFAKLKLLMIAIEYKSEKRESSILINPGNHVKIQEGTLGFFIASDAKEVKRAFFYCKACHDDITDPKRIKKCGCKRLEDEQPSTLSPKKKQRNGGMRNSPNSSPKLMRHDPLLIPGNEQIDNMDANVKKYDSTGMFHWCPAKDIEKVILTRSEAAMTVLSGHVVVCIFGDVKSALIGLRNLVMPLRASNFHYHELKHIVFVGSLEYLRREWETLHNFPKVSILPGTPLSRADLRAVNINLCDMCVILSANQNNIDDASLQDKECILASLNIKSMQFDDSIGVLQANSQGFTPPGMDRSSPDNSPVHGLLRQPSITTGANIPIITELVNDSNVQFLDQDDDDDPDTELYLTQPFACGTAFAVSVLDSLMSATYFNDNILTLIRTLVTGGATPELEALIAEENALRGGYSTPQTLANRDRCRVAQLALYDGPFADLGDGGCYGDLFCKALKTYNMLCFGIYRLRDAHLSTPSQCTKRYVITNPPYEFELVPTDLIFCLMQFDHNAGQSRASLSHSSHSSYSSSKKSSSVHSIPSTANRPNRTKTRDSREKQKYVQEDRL

Key:
Assay in all cases: co-IP; reciprocal coIP from chick cochleae with 2.5-6 µg of antibody to the BKAP, protein G beads; blot with anti-BKα; controls: antibody preadsorbed with antigen, uncomplexed beads
[1] = target: T1, 14-3-3γ (chicken (endogenous in chick cochlea)) (UniProt Q5F3W6)
T1 sequence: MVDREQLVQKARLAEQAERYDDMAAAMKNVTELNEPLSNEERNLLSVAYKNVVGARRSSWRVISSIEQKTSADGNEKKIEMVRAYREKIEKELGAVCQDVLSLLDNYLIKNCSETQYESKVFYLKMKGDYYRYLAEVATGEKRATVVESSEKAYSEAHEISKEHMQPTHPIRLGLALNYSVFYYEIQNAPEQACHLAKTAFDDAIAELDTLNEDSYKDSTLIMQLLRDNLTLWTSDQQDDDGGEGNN

[2] = target: lamin A (chicken (endogenous in chick cochlea)) (UniProt P13648)
[3] = target: T2, annexin A5 (chicken (endogenous in chick cochlea)) (UniProt P17153)
T2 sequence: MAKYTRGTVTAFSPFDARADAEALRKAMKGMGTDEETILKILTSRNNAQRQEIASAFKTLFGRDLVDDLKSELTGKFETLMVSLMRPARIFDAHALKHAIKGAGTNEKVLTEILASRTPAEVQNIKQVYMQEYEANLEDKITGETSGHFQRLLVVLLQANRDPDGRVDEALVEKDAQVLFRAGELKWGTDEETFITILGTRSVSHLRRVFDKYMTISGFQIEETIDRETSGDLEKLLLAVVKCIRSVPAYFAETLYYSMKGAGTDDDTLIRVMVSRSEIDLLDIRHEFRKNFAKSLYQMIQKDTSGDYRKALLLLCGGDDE

[4] = target: cortactin (chicken (endogenous in chick cochlea)) (UniProt Q01406)
[5] = target: superoxide dismutase 1 (chicken (endogenous in chick cochlea)) (UniProt P80566)
[6] = target: T3, heat shock protein (HSP) 60 (chicken (endogenous in chick cochlea)) (UniProt Q5ZL72)
T3 sequence: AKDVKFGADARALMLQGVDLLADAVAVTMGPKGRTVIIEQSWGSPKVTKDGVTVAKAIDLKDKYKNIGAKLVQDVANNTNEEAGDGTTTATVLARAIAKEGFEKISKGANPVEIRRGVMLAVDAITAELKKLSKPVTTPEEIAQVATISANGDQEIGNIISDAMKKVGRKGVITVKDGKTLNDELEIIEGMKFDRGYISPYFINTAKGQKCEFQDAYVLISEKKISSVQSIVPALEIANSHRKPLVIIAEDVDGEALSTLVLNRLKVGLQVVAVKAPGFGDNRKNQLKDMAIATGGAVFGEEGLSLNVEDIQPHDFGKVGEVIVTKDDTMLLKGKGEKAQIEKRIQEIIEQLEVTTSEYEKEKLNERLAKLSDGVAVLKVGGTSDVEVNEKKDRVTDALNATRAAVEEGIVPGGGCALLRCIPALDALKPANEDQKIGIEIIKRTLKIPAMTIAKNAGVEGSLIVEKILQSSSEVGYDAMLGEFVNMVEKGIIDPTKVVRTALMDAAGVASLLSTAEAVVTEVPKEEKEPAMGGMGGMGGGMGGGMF

[7] = target: T4, prohibitin (chicken (endogenous in chick cochlea)) (UniProt P84173)
T4 sequence: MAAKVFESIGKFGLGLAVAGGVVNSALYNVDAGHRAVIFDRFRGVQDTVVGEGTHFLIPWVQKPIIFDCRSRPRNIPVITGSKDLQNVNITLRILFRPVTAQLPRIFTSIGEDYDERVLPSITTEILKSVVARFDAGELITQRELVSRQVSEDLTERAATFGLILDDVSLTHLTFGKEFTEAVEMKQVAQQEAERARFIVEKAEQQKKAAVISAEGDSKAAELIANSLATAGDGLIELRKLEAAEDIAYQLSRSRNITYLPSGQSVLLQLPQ

[8] = target: T5, lin-7 homolog C (chicken (endogenous in chick cochlea)) (UniProt Q5F425)
T5 sequence: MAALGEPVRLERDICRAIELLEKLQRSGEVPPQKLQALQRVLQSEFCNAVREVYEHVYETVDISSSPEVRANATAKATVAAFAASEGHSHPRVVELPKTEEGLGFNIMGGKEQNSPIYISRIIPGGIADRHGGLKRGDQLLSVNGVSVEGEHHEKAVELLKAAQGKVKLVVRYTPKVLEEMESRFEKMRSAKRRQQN

[9] = target: synaptosomal-associated protein 25 (chicken (endogenous in chick cochlea)) (UniProt P60878)
[10] = target: T6, stathmin (chicken (endogenous in chick cochlea)) (UniProt P31395)
T6 sequence: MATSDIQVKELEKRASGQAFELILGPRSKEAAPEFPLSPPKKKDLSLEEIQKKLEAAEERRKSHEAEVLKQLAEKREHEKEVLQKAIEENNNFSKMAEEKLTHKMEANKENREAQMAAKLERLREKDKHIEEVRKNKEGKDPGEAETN

[11] = target: glucose-related protein 78 (chicken (endogenous in chick cochlea)) (UniProt Q90593)

Measured: binding

large-conductance Ca2+-activated K+ (BK) channel α-subunit (from UniProt Q8AYS8 1-1137)
binds: [1] | [2] | [3] | [4] | [5] | [6] | [7] | [8] | [9] | [10] | [11]
